# Data as given in PubChem BioAssay AID686937 (Drosophila RNAi Screening Center, 2013).
# Aim: 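Genes in the fly needed for secretion of protein constitutively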 (primary screen)
# Cell system: Drosophila S2 cells expressing secreted horseradish peroxidase
# Knock-down reagent: long dsRNA against Drosophila genes
# Duration: about 5.5 days (5 days dsRNA, then 12 h reporter induction)
# Challenge: reporter expression induced after 5 days of dsRNA, read 12 h later; inducer not stated
# Detection: 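Chemiluminescent measurement of peroxidase in the medium 12 h after reporter induction, following 5 days of dsRNA, given as a z-score per plate; higher means more secretion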
# Scale: z-score: higher = more reporter secreted into medium
# The screen tested about 23,000 reagents; below is an unselected part of those with a known target gene and a result. 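Reduced-secretion tags in replicate 1 do not always agree with the z-scores; no criterion for assigning the tags was given.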 Names joined by + are all predicted targets of the reagent. Not stated in the record: the amount of reagent.
predicted target,DRSC id,"z-score, replicate 1","z-score, replicate 2","z-score, replicate 3","z-score, replicate 4","phenotype, replicate 1"
Tsen34 + Trl,DRSC10014,0.14,0.2,,,
CG18094,DRSC02655,0.11,0.3,,,
Efa6 (Exchange factor for Arf 6),DRSC13569,0.4,0.4,,,
Efa6 (Exchange factor for Arf 6),DRSC15312,0.19,0.28,,,
Efa6 (Exchange factor for Arf 6),DRSC16141,0.67,0.57,,,
papi,DRSC00693,0.58,0.39,,,
unpg (unplugged),DRSC07713,0.13,0.19,,,
Lip4 (Lipase 4),DRSC02930,-0.2,-0.22,,,
Rap2l (Ras-associated protein 2-like),DRSC04646,0.13,0.5,,,
kek1 (kekkon 1),DRSC03551,0,0.08,,,
CG34337,DRSC18435,0.33,0.63,,,
Larp7 (La related protein 7),DRSC18798,0.36,-0.05,,,
CG8916,DRSC20120,0.34,0.45,,,
ND4 (retired record),DRSC21269,0.57,0.08,,,
Nup358 (Nucleoporin 358kD),DRSC14410,-1.21,-1.38,,,
GstD7 (Glutathione S transferase D7),DRSC16688,0.28,0.18,-0.42,-0.09,
seq (sequoia),DRSC06863,-0.04,0,,,
Trhn (Tryptophan hydroxylase neuronal),DRSC08621,0.39,0.11,,,
Atg13 (Autophagy-related 13),DRSC16228,0.22,0.75,,,
aos (argos),DRSC11323,0.35,0.4,,,
CG1647,DRSC15134,0.19,0.21,,,
Polr3H (RNA polymerase III subunit H),DRSC10817,-0.46,0.09,,,
CG43146 (retired record),DRSC09254,0.5,0.53,,,
CG15522,DRSC15059,0.26,0.44,,,
CG42566,DRSC03949,0.11,0.27,,,
CG14856,DRSC14980,0.35,-0.47,,,
CG5126,DRSC00680,0.41,0.38,,,
CG32625,DRSC18994,0.51,0.51,,,
pav (pavarotti),DRSC08730,-1.47,-0.54,,,
mRpL52 (mitochondrial ribosomal protein L52),DRSC06585,0.24,0.14,,,
CG43318,DRSC14999,-0.04,0.3,,,
Plod (procollagen lysyl hydroxylase),DRSC10601,0.36,0.2,,,
Plod (procollagen lysyl hydroxylase),DRSC10602,0.42,0.24,,,
aft (adrift),DRSC07576,0.22,0.1,,,
CG31680,DRSC21878,0.06,0.37,,,
beat-IIb (beaten path IIb),DRSC13219,-1.07,-1.17,,,
beat-IIb (beaten path IIb),DRSC14816,0.48,0.64,,,
beat-IIb (beaten path IIb),DRSC15546,0.48,0.07,,,
CG7294,DRSC03041,-0.16,0.42,,,
Amnionless,DRSC00317,0.09,0.19,,,
reb (rebuf),DRSC06308,0.39,0.37,,,

Records above whose gene name begins with L or l (2):
predicted target,DRSC id,"z-score, replicate 1","z-score, replicate 2","z-score, replicate 3","z-score, replicate 4","phenotype, replicate 1"
Lip4 (Lipase 4),DRSC02930,-0.2,-0.22,,,
Larp7 (La related protein 7),DRSC18798,0.36,-0.05,,,

Continued.
predicted target,DRSC id,"z-score, replicate 1","z-score, replicate 2","z-score, replicate 3","z-score, replicate 4","phenotype, replicate 1"
CG13392,DRSC02262,0.17,0.13,,,
CG6763,DRSC16110,0.25,0.28,,,
da,DRSC03517,-0.05,0.18,,,
CG16959,DRSC10230,0.31,0.29,,,
CG7903,DRSC16338,0.08,0,,,
igl (igloo),DRSC07631,0.24,0.27,,,
CG14492,DRSC06463,0.3,0.34,,,
cv-c (crossveinless c),DRSC14969,0.14,0.11,,,
cv-c (crossveinless c),DRSC14970,0.54,0.27,,,
cv-c (crossveinless c),DRSC14971,-0.09,-0.8,,,
cv-c (crossveinless c),DRSC14972,0.46,0.63,,,
cv-c (crossveinless c),DRSC14973,-2.22,-0.44,,,reduced secretion
cv-c (crossveinless c),DRSC16428,0.61,0.84,,,
Cog2 (Component of oligomeric golgi complex 2),DRSC16987,-1.65,-1.68,,,reduced secretion
Tsp42Ee (Tetraspanin 42Ee),DRSC05947,0.48,0.46,,,
CAH5 (Carbonic anhydrase 5),DRSC15372,-0.16,-0.79,,,
NimB1 (Nimrod B1),DRSC01880,0.43,0.35,,,
hfw (halfway),DRSC18506,0.28,0.34,,,
Cadps (Calcium-dependent secretion activator),DRSC21057,0.56,0.05,,,
Cadps (Calcium-dependent secretion activator),DRSC22200,-0.43,-0.15,,,
lncRNA:Hsromega (Heat shock RNA omega),DRSC22875,0.06,0.05,,,
Bub3,DRSC14168,-0.17,-0.56,,,
dpr4 (defective proboscis extension response 4),DRSC14531,0.23,0.07,,,
dpr4 (defective proboscis extension response 4),DRSC14929,0.36,0.62,,,
rdhB (retinol dehydrogenase B),DRSC16190,0.31,0.28,,,
CG33062,DRSC22195,1.37,0.39,,,
Or9a (Odorant receptor 9a),DRSC18692,0.35,0.44,,,
CG10911,DRSC06008,0.08,0.15,,,
CG8519,DRSC10985,0.36,0.27,,,
Mur89F (Mucin related 89F),DRSC15544,0.5,0.37,,,
CG15258,DRSC02478,-0.14,0.11,,,
CG14298,DRSC14777,0.45,0.06,,,
CG17124,DRSC02580,0.17,0.47,,,
CG11034,DRSC02121,-0.13,0.11,,,
CG11034,DRSC02122,0.48,0.08,,,
Hk (Hyperkinetic),DRSC17638,-1,-0.88,,,
Hk (Hyperkinetic),DRSC17639,-1.86,-2.28,,,reduced secretion
Hk (Hyperkinetic),DRSC18138,-0.14,-0.8,,,
Hk (Hyperkinetic),DRSC18674,-0.87,-0.21,,,
CG2003,DRSC15411,0.36,0.25,,,
Nin (Ninein),DRSC02007,0.28,0.22,,,
